Experimental data taken from PubChem BioAssay AID2417 (National Center for Advancing Translational Sciences (NCATS), 2010).
Out of some 140,000 compounds screened, about 4,300 (3.1%) were called active. Inconclusive results, whose numbers are uncertain, are shown with a selection of clear calls.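 Rule for the calls: active = readout at or below -70, meaning at least 70% loss of cells showing the perinucleolar compartment, a nuclear body marking cancer cells; inconclusive = readout between -30 and a set limit; inactive = the rest.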

Test: High Content Assay for Compounds that inhibit the Assembly of the Perinucleolar Compartment;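 note: plate controls were DMSO wells for no effect and camptothecin positive control wells for full effect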
Settings: PC3M PTB-GFP, PNC prevalence imaging, 16 h; at 10 µM; active compounds read low
How it was run: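 Read-out is percentage of cells bearing a perinucleolar compartment, from automated 20x imaging of fixed, Hoechst-stained PC3M PTB-GFP cells. Cells were seeded 4 h, then exposed 16 h to compound (23 nl of library stock) in duplicate plates.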

Row | SMILES | activity change (PNC), negative = inhibition
1 | CC(=O)c1ccc(S(=O)(=O)Nc2cccc(S(=O)(=O)NC3=NCCC3)c2)cc1 | inconclusive: -36.8%
2 | O=c1c(Cl)c(O)c2cccc3c4ccccc4n1c23 | inactive: -14.5%
3 | CCN(CC)c1ncnc2scc(C3COc4ccccc4O3)c12 (configuration not stated) | active: -100%
4 | COc1ccc(NC(=O)c2csc(Cc3ccccc3)n2)cc1 | inconclusive: -33.5%
5 | N#CC1=C(N)OC2=C(CN(Cc3ccccc3)C/C2=C\c2cccnc2)C1c1cccnc1 (configuration not stated) | inactive: 30.8%
6 | CCOC(=O)C1=NN(C(=O)c2ccccc2)C(O)(c2ccc(C)cc2)C1 (configuration not stated) | active: -95%
7 | Cc1ccc(S(=O)(=O)N2CCC(=O)N(C(COCc3cccc(Cl)c3)C(C)C)CC2)cc1 (configuration not stated) | inconclusive: -32.6%
8 | Cc1noc(C)c1COc1ccc(C(=O)OCC(=O)NC23CC4CC(CC(C4)C2)C3)cc1 | inconclusive: -32.6%
9 | CN(C)c1ccccc1C(=O)c1ccccc1N(C)C | inconclusive: -33.8%
10 | C=CCN=C(NC#N)SCc1ccccc1 | inactive: 34.2%
11 | O=C(NC(Cc1c[nH]c2ccccc12)c1nnc2n1CCCCC2)c1ccccc1Cl (configuration not stated) | inactive: 20.7%
12 | Cc1cccc2cc(C#N)c(SCC(=O)NCc3cccs3)nc12 | inactive: -21.8%
13 | Cn1cnnc1SCC(=O)c1ccc2c(c1)OCO2 | inactive: 14.8%
14 | O=C(Nc1ccccc1N1CCOCC1)c1ccccc1NS(=O)(=O)c1ccc(F)cc1 | inconclusive: -37.4%
15 | CCC(C)NC(=O)CCSCCC(=O)NC(C)CC (configuration not stated) | active: -104%
16 | CCOc1ccc(/C(O)=C2/C(=O)C(=O)N(CCOCCO)C2c2ccccn2)cc1 (configuration not stated) | inactive: 20.6%
17 | CCCOC(=O)c1[nH]c2c(c1C)C(=O)CC(c1ccc(OC)c(OC)c1)C2 (configuration not stated) | inconclusive: -46.2%
18 | Cc1nc2sc3c(c2c(=O)o1)CC(C)(C)OC3 | inconclusive: -32.7%
19 | O=C(NCc1cccs1)c1ccccc1[N+](=O)[O-] | inconclusive: -36.8%
20 | N/C(=N\OS(=O)(=O)c1cccc([N+](=O)[O-])c1)c1ccncc1 | active: -108%
21 | Cc1ccc(C(=O)c2sc3nsc(C)c3c2N)cc1 | inconclusive: -37.5%
22 | CCc1cc2c(CN3CCN(CC)CC3)cc(=O)oc2cc1O | inconclusive: -65.1%
23 | Cc1ccc(C(=O)Nc2ccccc2C(=O)N2CC3(C)CC2CC(C)(C)C3)cc1 (configuration not stated) | inconclusive: -37.7%

Row | SMILES | activity change (PNC), negative = inhibition
24 | CCOCCCNC(=O)C1CCCN1C(=O)NC1CCCCC1 (configuration not stated) | inconclusive: -68.9%
25 | Cc1ccc(N=Nc2c(O)n(CN3CCOCC3)c3ccccc23)cc1 | inactive: -15.6%
26 | COc1ccc(/C=C2/SC(=O)N(CCNC(=O)C3CCCN3C(=O)c3cccs3)C2=O)cc1 (configuration not stated) | active: -99.6%
27 | COC(=O)c1cc(OC)c(OC)cc1NC(=S)Nc1cccc(C(C)=O)c1 | inactive: 5.36%
28 | O=C(Nc1ccccc1C(=O)N1CCOCC1)c1noc2c1CCCC2 | inconclusive: -69.2%
29 | CC(C)NC(C(=O)Nc1cc(Cl)cc(Cl)c1)c1ccccc1 (configuration not stated) | inactive: 5.14%
30 | O=C(c1ccc(F)cc1)N1CCC(O)(c2cccnc2)CC1 | inconclusive: -44%
31 | CCCCNC(=S)Nc1cccc(C(C)=O)c1 | inconclusive: -53%
32 | O=C(COc1ccccc1-c1ccccc1)N/N=C/c1cccc2ccccc12 | inconclusive: -58%
33 | N#Cc1c(C(F)(F)F)cc(-c2ccccc2)nc1SCc1nc(N)nc(N2CCOCC2)n1 | inactive: 28.4%
34 | Cc1ccc(CCNC(=O)CCc2nc3ccccc3[nH]2)cc1 | inconclusive: -58.8%
35 | O=C(Nc1ccc(F)cc1)N1CCOCC1 | inconclusive: -58.6%
36 | Cc1ccc(N2C(=O)C3C4C=CC(CNC(=S)Nc5ccc(F)cc5)(O4)C3C2=O)cc1 (configuration not stated) | active: -80.2%
37 | CC(C)Nc1nnc(SCC(=O)c2c[nH]c3ccccc23)s1 | inconclusive: -71.5%
38 | COc1ccc(NC(=O)/C(Cl)=C(/Cl)S(=O)Cc2ccccc2)cn1 (configuration not stated) | inconclusive: -57%
39 | COc1ccc2[nH]cc(C(=O)CN3CCC(C)CC3)c2c1 | inconclusive: -31.2%
40 | CCn1c(SCC(=O)c2ccc3c(c2)OCCO3)nnc1-c1ccco1 | active: -85.7%
41 | CC(C)(C)OC(=O)NCCc1nnc(SCC(=O)c2ccc(Cl)cc2)o1 | inconclusive: -68.3%
42 | Cc1ccc2nc(Nc3nc(C)cc(C(F)(F)F)n3)nc(C)c2c1 | inconclusive: -58%
43 | CC[N+](CC)(CC)C/C(N)=N/O | inconclusive: -30.1%
44 | COc1ccccc1N=c1scc(-c2ccc3c(c2)NC(=O)CO3)n1CC1CCCO1 (configuration not stated) | inconclusive: -46.6%
45 | c1ccc(-c2ccccc2OCCCN2CCCCC2)cc1 | inactive: 89.8%
46 | CN(CC(=O)N1CCc2ccccc2C1)S(=O)(=O)c1ccc2c(c1)c(=O)n(C)c(=O)n2C | inconclusive: -40.3%

Row | SMILES | activity change (PNC), negative = inhibition
47 | O=C(Nc1nnc(SCC(=O)N2CCOCC2)s1)c1ccccc1Cl | inactive: -9.2%
48 | Cc1cc(=O)oc(C)c1C(=O)NCCNC(=O)c1c(C)cc(=O)oc1C | inactive: -25.1%
49 | COCCNc1nc(CSc2ccccc2)nc2sc(C)c(C)c12 | active: -85.9%
50 | CC(C)C12CN3CC(C(C)C)(CN(C1)C3c1ccc3c(c1)OCO3)C2=O (configuration not stated) | inactive: 7.03%
51 | CC(/C=N/n1c(-c2ccc(C)cc2)n[nH]c1=S)=C\c1ccco1 | inactive: -4.73%
52 | COc1cccc(CNCCc2c[nH]c3ccccc23)c1OCc1ccccc1F | inactive: 9.41%
53 | Cc1ccc(C(CC(=O)N2CCOCC2)c2ccco2)cc1 (configuration not stated) | inactive: 13.6%
54 | CCOC(=O)C1CCCCN1Cc1ccccc1C(F)(F)F (configuration not stated) | inconclusive: -34.6%
55 | COc1ccc(CCNC(=O)C2CCN(Cc3nc(-c4cccc(Cl)c4)oc3C)CC2)cc1OC | active: -83.4%
56 | CCCNC(=O)c1cc2ccccc2c(=O)o1 | inconclusive: -53.6%
57 | COc1cc(C(c2c(C)[nH][nH]c2=O)c2c(C)[nH][nH]c2=O)ccc1OS(=O)(=O)c1ccccc1 | inactive: 11.1%
58 | Cc1ccc2cccc(Oc3cnccn3)c2n1 | inconclusive: -48.3%
59 | Cc1nc(NC(=O)c2ccc(Cl)cc2)sc1Cc1ccc2c(c1)OCO2 | inconclusive: -43.2%
60 | Cc1ccc(CNS(=O)(=O)c2ccc3c(c2)OCCO3)cc1 | active: -101%
61 | CC1=C(C(=O)Nc2ccc(C)cc2)C(c2cccs2)NC(=S)N1 (configuration not stated) | inactive: 24.1%
62 | CC(=O)N1C(C(=O)O)CSC1c1cccc(C)c1 (configuration not stated) | inconclusive: -51.9%
63 | CCC(C)(C)NC(=O)C(c1ccc(C)cc1)N(CC1CCCO1)C(=O)CNC(=O)c1cccs1 (configuration not stated) | inconclusive: -71.2%
64 | CSC1=N/C(=C\c2cccc(F)c2)C(=O)S1 | inactive: 11%
65 | COC(=O)c1ccccc1NC(=O)Nc1cccnc1 | inconclusive: -64.1%
66 | COc1ccc(NC2=C(C(C)=O)C(c3ccc4c(c3)OCO4)C(C(C)=O)C(C)(O)C2)cc1 (configuration not stated) | inconclusive: -34.6%
67 | N#CC1=C(S)N(c2ccccc2)C(c2ccc(-c3cc(Cl)ccc3Cl)o2)NC1=O (configuration not stated) | inactive: 13.2%
68 | COc1cccc(S(=O)(=O)NCC(=O)Nc2ccc(C(C)(C)C)cc2)c1 | inconclusive: -44.6%
69 | O=C(NNC(=O)C1CC(c2cccnc2)=NO1)Nc1cccc(F)c1 (configuration not stated) | inactive: -14.6%

Row | SMILES | activity change (PNC), negative = inhibition
70 | CCOC(=O)C1CCc2nc3ccccc3c(=O)n21 (configuration not stated) | active: -123%
71 | O=C(CCc1ccccc1)Nc1ccccc1C(=O)NCc1ccco1 | inconclusive: -38.4%
72 | CCCSc1nnc2c(n1)OC(c1cccn1C)N(C(C)=O)c1ccccc1-2 (configuration not stated) | inconclusive: -65.5%
73 | Cc1cccc(NC(=O)CN2C(=O)S/C(=C\c3cc(C)n(C)c3C)C2=O)c1 | inconclusive: -53.5%
74 | C=CCn1c(N)c(C(=O)N2CCN(C)CC2)sc1=S | inconclusive: -33.9%
75 | CCn1c2ccc(F)cc2c2nnc(NN)nc21 | inactive: -29.2%
76 | COC(=O)c1c(NC(=O)c2ccoc2C)sc2c1CCC2 | active: -109%
77 | CCN1CC2=C(OC(N)=C(C#N)C2c2cccs2)/C(=C/c2cccs2)C1 (configuration not stated) | inactive: -26.4%
78 | Clc1ccc(OCCCN2CCCCC2)c(Br)c1 | inactive: 15.3%
79 | Cc1cccc[n+]1CC(=O)Nc1ccc([N+](=O)[O-])cc1Cl | inactive: -8.14%
80 | CCN(CC)c1ccc2cc(-c3nnc(-c4ccccc4)o3)c(=O)oc2c1 | active: -100%
81 | COc1ccccc1N1CCN(C(=O)C(F)F)CC1 | inconclusive: -39.4%
82 | CC1CCCCN1C(=O)Cn1cc(/C=C2/C(=O)Nc3ccccc32)c2ccccc21 (configuration not stated) | inactive: 40.6%
83 | O=C(c1cccs1)N(Cc1ccco1)C1CCS(=O)(=O)C1 (configuration not stated) | inconclusive: -59.7%
84 | Nc1c(S(=O)(=O)c2ccccc2)c2nc3ccccc3nc2n1/N=C/c1cccc(O)c1 | inactive: 1.03%
85 | COc1ccc2c(c1)OCC1=C2CCC2(C)C(=O)CC=C12 (configuration not stated) | inconclusive: -35.6%
86 | CCCCCSc1nnc(-c2ccccc2N)c(=O)[nH]1 | inconclusive: -59.8%
87 | CC(=O)c1cccc(NC(=O)NCc2ccccn2)c1 | inconclusive: -39.7%
88 | COC(=O)c1ccc(C(=O)OC)c(NC(=O)CSc2cccc[n+]2[O-])c1 | inactive: -14.1%
89 | CCOC(=O)CN(Cc1ccccc1)S(=O)(=O)c1ccc(NC(C)=O)cc1 | inconclusive: -37.6%
90 | COc1cc(NC(=O)CN(C)C2CCCCC2)c(C)cc1[N+](=O)[O-] | inactive: -3.81%
91 | O=C(N/N=C/c1cccc([N+](=O)[O-])c1)c1cnccn1 | inconclusive: -52%
92 | CCOC(=O)c1ccc(COC(=O)c2cc(=O)[nH]c3ccccc23)o1 | inconclusive: -33.4%

Molecules above containing a CF3 group (3):
Row | SMILES | activity change (PNC), negative = inhibition
33 | N#Cc1c(C(F)(F)F)cc(-c2ccccc2)nc1SCc1nc(N)nc(N2CCOCC2)n1 | inactive: 28.4%
42 | Cc1ccc2nc(Nc3nc(C)cc(C(F)(F)F)n3)nc(C)c2c1 | inconclusive: -58%
54 | CCOC(=O)C1CCCCN1Cc1ccccc1C(F)(F)F (configuration not stated) | inconclusive: -34.6%
